In assay [1] the target is biotinylated human PPP1R15A^533-624 (AviTag-PPP1R15A 533-624-MBP) (human) (UniProt O75807). Nature of the assay: BLI; as a1 but with Sephin1 [50 µM] added before exposure to PP1 and present during the binding phase; both purified. On the technique in general: BLI is a label-free optical method that tracks binding on a fibre tip over time.
In assay [2] the target is biotinylated human PPP1R15A^(533-624)F592A (human) (UniProt O75807). Nature of the assay: BLI; biotinylated PPP1R15A^533-624 (wild type or mutant) immobilised on streptavidin sensor; PP1 [40 nM] in solution; HEPES buffer, 25 °C, 600 rpm; fit 'association then dissociation'; both purified.
Assay [3] concerns the target biotinylated human PPP1R15A^(533-624)R578A (human) (UniProt O75807). Described as above.
Assay [4] has as its target biotinylated human PPP1R15A^(533-624)V556E (human) (UniProt O75807). The description is as above.
Assay [5] has as its target biotinylated human PPP1R15A^(533-624)W582A (human) (UniProt O75807). Described as above.

Chains of the proteins cited; added tags and fusions are not shown. Lines headed by an entry give the natural chain unless they say otherwise; changes in a name come on top. A line that says so, or that is headed by a name, gives the form on record, which may keep a tag or linker. Residues count along the entry.
biotinylated human PPP1R15A^533-624 (AviTag-PPP1R15A 533-624-MBP) (O75807, residues 533-624): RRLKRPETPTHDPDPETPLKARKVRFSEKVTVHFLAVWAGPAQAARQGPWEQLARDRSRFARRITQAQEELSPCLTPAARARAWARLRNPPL
biotinylated human PPP1R15A^(533-624)F592A (O75807, form named): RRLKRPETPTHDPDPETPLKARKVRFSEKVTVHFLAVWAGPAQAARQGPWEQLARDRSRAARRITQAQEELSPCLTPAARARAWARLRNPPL
biotinylated human PPP1R15A^(533-624)R578A (O75807, form named): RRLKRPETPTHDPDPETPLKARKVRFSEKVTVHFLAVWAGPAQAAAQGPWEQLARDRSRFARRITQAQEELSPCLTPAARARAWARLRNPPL
biotinylated human PPP1R15A^(533-624)V556E (O75807, form named): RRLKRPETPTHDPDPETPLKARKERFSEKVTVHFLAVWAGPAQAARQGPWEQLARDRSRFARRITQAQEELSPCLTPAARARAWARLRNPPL
biotinylated human PPP1R15A^(533-624)W582A (O75807, form named): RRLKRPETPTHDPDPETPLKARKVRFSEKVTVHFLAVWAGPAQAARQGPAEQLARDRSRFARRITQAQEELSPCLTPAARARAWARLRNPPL
UniProt P63087: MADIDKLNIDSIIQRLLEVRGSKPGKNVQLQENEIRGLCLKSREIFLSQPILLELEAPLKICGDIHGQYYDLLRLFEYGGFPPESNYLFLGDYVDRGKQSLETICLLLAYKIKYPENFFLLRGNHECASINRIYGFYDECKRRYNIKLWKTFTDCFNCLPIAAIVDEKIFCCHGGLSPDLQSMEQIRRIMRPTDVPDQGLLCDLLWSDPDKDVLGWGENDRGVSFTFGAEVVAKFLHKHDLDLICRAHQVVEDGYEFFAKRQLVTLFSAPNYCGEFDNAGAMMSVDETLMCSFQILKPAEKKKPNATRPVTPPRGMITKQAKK

These are yes or no findings as the source states them, for the method shown. Some results given as binding are weak or reduced against the parent protein; the word gives no strength.

For the substance “PP1 (PP1G 1–323, full-length PP1 phosphatase catalytic subunit) (from UniProt P63087 1-323) (enzyme)”, the binding result is “binds” in assay [1]; “binds” in assay [2]; “binds” in assay [3]; “no binding (tested: PP1 [40 nM])” in assay [4]; “binds” in assay [5].

The record behind these values is publication PMC5429092.
